Reference: article PMC10835877
No constants are given. Whether binding was seen depends on the method and setting. In cells and extracts the contact can be indirect. Some entries that bind do so weakly or less than the wild type.

Protein sequences, listed by entry. Tags and fused reporters are not part of them.
UniProt Q62120: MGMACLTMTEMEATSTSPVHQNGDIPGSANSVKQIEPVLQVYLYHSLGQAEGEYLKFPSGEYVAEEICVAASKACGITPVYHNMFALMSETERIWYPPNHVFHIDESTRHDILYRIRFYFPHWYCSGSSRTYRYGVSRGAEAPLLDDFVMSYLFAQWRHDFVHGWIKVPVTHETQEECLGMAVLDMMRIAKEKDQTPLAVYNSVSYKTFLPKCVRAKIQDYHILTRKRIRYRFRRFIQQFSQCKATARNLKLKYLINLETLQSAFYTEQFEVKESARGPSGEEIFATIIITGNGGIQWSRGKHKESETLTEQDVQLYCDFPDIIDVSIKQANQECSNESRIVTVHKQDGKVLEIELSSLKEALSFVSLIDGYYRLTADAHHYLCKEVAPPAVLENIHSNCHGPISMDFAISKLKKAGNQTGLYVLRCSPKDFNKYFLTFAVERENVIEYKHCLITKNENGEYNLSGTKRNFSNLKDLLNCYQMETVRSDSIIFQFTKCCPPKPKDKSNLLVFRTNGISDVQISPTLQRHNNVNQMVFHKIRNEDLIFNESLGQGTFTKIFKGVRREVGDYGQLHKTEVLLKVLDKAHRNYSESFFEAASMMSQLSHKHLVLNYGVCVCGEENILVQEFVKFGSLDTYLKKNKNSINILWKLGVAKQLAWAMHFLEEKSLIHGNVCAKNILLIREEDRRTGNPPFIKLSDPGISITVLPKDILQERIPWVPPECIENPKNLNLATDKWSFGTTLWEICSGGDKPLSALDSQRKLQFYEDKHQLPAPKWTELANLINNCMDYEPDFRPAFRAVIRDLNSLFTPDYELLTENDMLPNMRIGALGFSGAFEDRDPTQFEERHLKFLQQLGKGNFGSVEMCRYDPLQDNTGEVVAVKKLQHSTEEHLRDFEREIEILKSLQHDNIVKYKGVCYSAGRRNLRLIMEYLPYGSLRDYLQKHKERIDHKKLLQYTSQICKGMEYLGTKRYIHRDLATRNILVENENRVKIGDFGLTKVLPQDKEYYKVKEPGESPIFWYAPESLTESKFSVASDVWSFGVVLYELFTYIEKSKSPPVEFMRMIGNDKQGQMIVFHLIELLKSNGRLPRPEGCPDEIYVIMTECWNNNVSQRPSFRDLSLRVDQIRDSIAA

Target: T1, signal transducer and activator of transcription 1 (Stat1) (mouse (endogenous in primary peritoneal macrophages)) (UniProt P42225)
T1 sequence: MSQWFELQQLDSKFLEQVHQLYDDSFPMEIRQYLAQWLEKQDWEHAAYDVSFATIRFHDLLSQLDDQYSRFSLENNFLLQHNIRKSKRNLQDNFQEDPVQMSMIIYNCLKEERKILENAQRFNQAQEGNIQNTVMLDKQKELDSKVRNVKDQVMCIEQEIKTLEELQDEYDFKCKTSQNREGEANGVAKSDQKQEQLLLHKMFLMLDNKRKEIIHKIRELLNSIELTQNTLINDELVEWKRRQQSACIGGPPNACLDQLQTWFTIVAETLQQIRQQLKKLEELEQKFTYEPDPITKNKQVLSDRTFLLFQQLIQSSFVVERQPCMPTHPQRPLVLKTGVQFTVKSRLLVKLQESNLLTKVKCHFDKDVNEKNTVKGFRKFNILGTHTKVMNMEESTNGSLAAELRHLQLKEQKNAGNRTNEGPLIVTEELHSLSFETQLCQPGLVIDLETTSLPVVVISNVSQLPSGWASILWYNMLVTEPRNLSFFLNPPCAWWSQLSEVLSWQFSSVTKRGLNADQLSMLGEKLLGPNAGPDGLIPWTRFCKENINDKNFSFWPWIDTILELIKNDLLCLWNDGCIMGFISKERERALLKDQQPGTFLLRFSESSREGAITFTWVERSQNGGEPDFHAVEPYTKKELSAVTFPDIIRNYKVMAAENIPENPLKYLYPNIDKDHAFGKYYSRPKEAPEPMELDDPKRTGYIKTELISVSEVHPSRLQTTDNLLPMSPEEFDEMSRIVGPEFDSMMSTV
Assay: co-IP; anti-Stat1 antibody (IgG as control) on lysate of macrophages treated with Tet2 inhibitor BC339 or DMSO for 24 h and stimulated with 10 ng/mL IFN-γ for the indicated time; Tet2, Stat1, Jak1 and Jak2 detected by western blotting

binding: binds
Substance: Janus kinase 2 (Jak2) (from UniProt Q62120 1-1132)
